Like-named read-outs stand apart in the source and are kept apart here. No constants are given. Whether binding was seen depends on the method and setting. For part of these data: Binding seen in cells or lysates may run through a third protein. Some entries that bind do so weakly or less than the wild type. Sequences can lack the tags named with a protein.

Chains of the proteins cited; added tags and fusions are not shown.
UniProt P49597: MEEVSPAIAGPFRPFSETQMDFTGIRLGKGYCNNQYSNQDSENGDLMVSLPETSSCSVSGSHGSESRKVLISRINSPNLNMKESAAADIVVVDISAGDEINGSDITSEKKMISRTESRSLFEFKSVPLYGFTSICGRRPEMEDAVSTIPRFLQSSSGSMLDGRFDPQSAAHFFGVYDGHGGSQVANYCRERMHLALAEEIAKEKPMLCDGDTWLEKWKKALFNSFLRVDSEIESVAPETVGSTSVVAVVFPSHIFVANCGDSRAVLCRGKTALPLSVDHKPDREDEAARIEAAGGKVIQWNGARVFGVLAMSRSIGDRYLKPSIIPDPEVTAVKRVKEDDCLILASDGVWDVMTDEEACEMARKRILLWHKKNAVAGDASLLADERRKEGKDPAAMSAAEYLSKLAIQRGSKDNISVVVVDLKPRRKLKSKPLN

Assay [1] addresses T1, calcium-dependent protein kinase 5 (CPK5), full-length, yeast two-hybrid fusion (Arabidopsis thaliana) (UniProt Q38871).
T1 sequence: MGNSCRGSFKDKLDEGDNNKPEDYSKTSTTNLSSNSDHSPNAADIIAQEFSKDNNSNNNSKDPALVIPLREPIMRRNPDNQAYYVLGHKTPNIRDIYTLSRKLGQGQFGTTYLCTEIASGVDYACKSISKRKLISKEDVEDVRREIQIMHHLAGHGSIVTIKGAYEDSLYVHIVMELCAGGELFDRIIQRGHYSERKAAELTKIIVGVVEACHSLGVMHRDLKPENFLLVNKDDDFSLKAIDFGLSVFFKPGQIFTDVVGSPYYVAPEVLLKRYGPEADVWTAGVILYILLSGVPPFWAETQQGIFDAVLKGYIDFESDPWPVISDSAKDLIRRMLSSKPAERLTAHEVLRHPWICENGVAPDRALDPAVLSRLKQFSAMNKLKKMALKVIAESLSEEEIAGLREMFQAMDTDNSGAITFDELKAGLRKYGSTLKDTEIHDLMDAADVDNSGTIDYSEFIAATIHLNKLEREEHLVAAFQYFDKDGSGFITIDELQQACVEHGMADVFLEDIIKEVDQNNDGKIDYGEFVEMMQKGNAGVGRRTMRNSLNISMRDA
The assay is described as follows: two-hybrid.

The target in assay [2] is T2, CPK5, cLuc fusion for the split-luciferase assay (Arabidopsis thaliana) (UniProt Q38871).
T2 sequence: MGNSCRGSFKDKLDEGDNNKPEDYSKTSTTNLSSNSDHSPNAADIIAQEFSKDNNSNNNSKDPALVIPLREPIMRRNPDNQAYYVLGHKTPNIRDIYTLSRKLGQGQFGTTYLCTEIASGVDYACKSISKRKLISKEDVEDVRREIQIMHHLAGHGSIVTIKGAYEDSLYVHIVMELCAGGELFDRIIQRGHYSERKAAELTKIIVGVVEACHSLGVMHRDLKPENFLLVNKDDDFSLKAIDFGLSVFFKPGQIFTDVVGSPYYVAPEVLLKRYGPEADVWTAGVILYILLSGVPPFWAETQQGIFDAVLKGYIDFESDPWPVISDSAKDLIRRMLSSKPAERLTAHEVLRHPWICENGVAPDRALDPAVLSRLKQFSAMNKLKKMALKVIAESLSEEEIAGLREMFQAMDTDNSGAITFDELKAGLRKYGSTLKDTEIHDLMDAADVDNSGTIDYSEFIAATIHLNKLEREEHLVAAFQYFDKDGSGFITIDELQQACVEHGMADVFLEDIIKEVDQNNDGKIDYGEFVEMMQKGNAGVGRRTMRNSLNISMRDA
The assay is described as follows: split reporter.

In assay [3] the target is T1, calcium-dependent protein kinase 5 (CPK5), full-length, yeast two-hybrid fusion (Arabidopsis thaliana). As to the kind of experiment: two-hybrid. This is another data set of the same source.

On to “ABI1, yeast two-hybrid fusion (from UniProt P49597 1-434)”, for which the binding result in assay [1] is given as “binds”.
With “ABI1, nLuc fusion for the split-luciferase assay (from UniProt P49597 1-434)”, the binding entry in assay [2] is listed as “binds”.

B1: HAI1, yeast two-hybrid fusion (protein, UniProt Q9FIF5 1-413)
chain: MAEICYENETMMIETTATVVKKATTTTRRRERSSSQAARRRRMEIRRFKFVSGEQEPVFVDGDLQRRRRRESTVAASTSTVFYETAKEVVVLCESLSSTVVALPDPEAYPKYGVASVCGRRREMEDAVAVHPFFSRHQTEYSSTGFHYCGVYDGHGCSHVAMKCRERLHELVREEFEADADWEKSMARSFTRMDMEVVALNADGAAKCRCELQRPDCDAVGSTAVVSVLTPEKIIVANCGDSRAVLCRNGKAIALSSDHKPDRPDELDRIQAAGGRVIYWDGPRVLGVLAMSRAIGDNYLKPYVISRPEVTVTDRANGDDFLILASDGLWDVVSNETACSVVRMCLRGKVNGQVSSSPEREMTGVGAGNVVVGGGDLPDKACEEASLLLTRLALARQSSDNVSVVVVDLRRDT
As for B1, the binding entry in assay [3] is on record as “binds weakly”.

Source of the values: publication doi:10.1101/2023.07.20.549975.
